Source: article PMC9454964
These are yes or no findings as the source states them, for the method shown. In cells and extracts the contact can be indirect. Some binding calls cover weakened binding; strength is not graded here.

Sequences of proteins named here, by UniProt entry; tags and fusion partners are left off.
UniProt O95817: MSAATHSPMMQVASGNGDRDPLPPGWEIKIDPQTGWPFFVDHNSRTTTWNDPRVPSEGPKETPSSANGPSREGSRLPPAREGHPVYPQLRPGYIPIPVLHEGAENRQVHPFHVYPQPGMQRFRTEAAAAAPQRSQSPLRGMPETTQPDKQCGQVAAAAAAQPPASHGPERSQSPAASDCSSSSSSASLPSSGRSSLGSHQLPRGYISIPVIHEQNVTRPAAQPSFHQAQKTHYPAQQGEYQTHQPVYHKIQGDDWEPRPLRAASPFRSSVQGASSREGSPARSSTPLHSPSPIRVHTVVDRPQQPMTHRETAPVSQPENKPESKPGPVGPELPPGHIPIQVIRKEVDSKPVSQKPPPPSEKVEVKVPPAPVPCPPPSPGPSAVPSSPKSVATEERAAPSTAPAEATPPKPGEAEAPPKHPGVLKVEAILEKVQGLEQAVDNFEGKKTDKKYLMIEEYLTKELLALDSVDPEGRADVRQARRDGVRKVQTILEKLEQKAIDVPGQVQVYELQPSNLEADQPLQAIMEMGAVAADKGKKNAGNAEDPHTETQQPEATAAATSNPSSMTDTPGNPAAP
UniProt Q99732: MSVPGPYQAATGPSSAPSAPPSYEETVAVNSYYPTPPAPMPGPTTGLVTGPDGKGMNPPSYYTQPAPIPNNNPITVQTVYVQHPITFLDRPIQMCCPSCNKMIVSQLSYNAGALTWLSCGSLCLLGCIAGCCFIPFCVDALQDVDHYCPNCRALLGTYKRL

Target: His-tagged full-length Bag3 (FL) (UniProt O95817)
Test: pull-down; transfected 293T cells fixed with 1.2% formaldehyde, lysed (DPBS, 0.5% Triton X-100, 10 mM imidazole), His-tagged Bag3 held on HisPur Ni-NTA resin at 4 °C, washed, eluted with 300 mM imidazole; associated LITAF detected by immunoblot

lipopolysaccharide TNFα factor (LITAF) (from UniProt Q99732 1-161)
binding: binds
